The source of these data is the supplement of paper PMC10735217.

The list shows a part of the results. Single values are uncertain here, since repeats match poorly.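 Human kidney-derived cells stably carry a construct in which eight TEAD-binding elements drive luciferase, measured by luminescence in a drug-repurposing library screen. A hit is any compound whose signal exceeds the plate mean by more than five robust Z scores.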

This assay relates to HEK293A TEAD-LUC reporter. Kind of assay: TEAD-luciferase reporter activity (YAP activation), robust Z score vs plate; higher = stronger YAP/TEAD activation. As to conditions: 24 h. For orientation: A reporter such as luciferase makes a cellular process visible.

For `O=C(O)[C@@H]1C[C@@H](Cc2cccc(F)c2)CN1`, the TEAD-luciferase reporter activity was inactive: 1.34 (compound concentration: 200 nM), inactive: -0.231 (compound concentration: 2 uM) and inactive: 2.03 (compound concentration: 10 uM).
For `CC1(C)N=C(N)N=C(N)N1OCc1ccc(Cl)c(Cl)c1`, in that order: inactive: -0.415, inactive: -1.23 and inactive: 0.694.
For `COc1ccc(-c2ccc3cc(C(=O)O)ccc3c2)cc1C12CC3CC(CC(C3)C1)C2` [Adapalene], in that order: inactive: -0.165, inactive: -1.93 and inactive: -2.25.
For `OC(Cn1cnnn1)(c1ccc(F)cc1F)C(F)(F)c1ccc(-c2ccc(OC(F)(F)F)cc2)cn1` (centres undefined), in that order: inactive: 3.41, inactive: -0.578 and inactive: 1.99.
Regarding `CCOc1nc(N)c2ncn(C3CCCCC3)c2n1`, the TEAD-luciferase reporter activity was inactive: -0.954 (compound concentration: 200 nM), inactive: -0.0558 (compound concentration: 2 uM) and inactive: 1.61 (compound concentration: 10 uM).
In the case of `Cc1cccc(C)c1NC(=O)C1CCCCN1CC1CC1` (centres undefined), the TEAD-luciferase reporter activity (compound concentration: 200 nM) is inactive: 1.91, the TEAD-luciferase reporter activity (compound concentration: 2 uM) was inactive: -1.87 and the TEAD-luciferase reporter activity (compound concentration: 10 uM) was inactive: -1.44.
As to `O=C(O)CCC(/C=C\Cc1ccc(OCCCCOc2ccccc2)cc1)Sc1ccc(C(=O)O)cc1` (centres undefined), the TEAD-luciferase reporter activity reads like this: (compound concentration: 200 nM) inactive: 0.477; (compound concentration: 2 uM) inactive: 0.295; (compound concentration: 10 uM) inactive: -0.155.
As for `Clc1ccccc1CNc1ccc(-n2ccnc2)nn1`, the TEAD-luciferase reporter activity is, setting by setting: (compound concentration: 200 nM) inactive: -1.19; (compound concentration: 2 uM) inactive: 0.94; (compound concentration: 10 uM) active: 6.61.
For `C[C@H](CC(=O)C[C@@H](C)[C@H]1C[C@H](O)C2(C)C3=C(C(=O)C[C@]12C)[C@@]1(C)CCC(=O)C(C)(C)[C@@H]1C[C@@H]3O)C(=O)O` (some centres undefined) [Ganoderic acid A], in that order: inactive: 3.7, inactive: 0.137 and inactive: 1.12.
Take `COc1c(C)cnc(Cn2cc(C#CCC(C)(C)O)c3c(Cl)nc(N)nc32)c1C`: the TEAD-luciferase reporter activity runs as follows: (compound concentration: 200 nM) inactive: -1.97; (compound concentration: 2 uM) inactive: -1.93; (compound concentration: 10 uM) inactive: -0.816.
For `O=C(O)CC1Cc2ccc(OCCCNc3ccccn3)cc2CN(CC(F)(F)F)C1=O` (centres undefined), in that order: inactive: -0.751, inactive: -1.03 and inactive: -2.09.
For `COc1cc2sc(C(=N)NO)cc2c(F)c1OC`, in that order: inactive: -0.597, inactive: -0.212 and inactive: 0.579.
For `CN(C)CCOc1ccc2[nH]c(C(=O)NCC#Cc3ccc(C(=O)NO)cc3)cc2c1`, in that order: active: 8.89, active: 16.5 and active: 29.7.
Take `CN(C)CCNC(=O)c1cc(C(=O)N=C(N)N)cc(-c2cc(Cl)sc2Cl)c1`: the TEAD-luciferase reporter activity is, setting by setting: (compound concentration: 200 nM) inactive: -0.708; (compound concentration: 2 uM) inactive: -0.498; (compound concentration: 10 uM) inactive: 2.01.
Take `CN1CCN(c2ccccc2/C=C2\SCCN(c3ccc(Cl)c(Cl)c3)C2=O)CC1`: the TEAD-luciferase reporter activity (compound concentration: 200 nM) is inactive: -0.334, the TEAD-luciferase reporter activity (compound concentration: 2 uM) is inactive: 0.107 and the TEAD-luciferase reporter activity (compound concentration: 10 uM) is inactive: -1.16.
For `CCCCc1nc(C)n(Cc2ccccc2C(=O)O)c(=O)c1Cc1ccc(-c2ccccc2-c2nnn[nH]2)cc1`, in that order: inactive: -0.338, inactive: 1.85 and inactive: -0.0397.
For `CCOC(=O)[C@H](C)NP(=O)(N[C@@H](C)C(=O)OCC)c1ccc(-c2nc(N)sc2CC(C)C)o1` [Managlinat dialanetil], in that order: inactive: -1.15, inactive: 0.813 and inactive: -0.556.
Take `COC(=O)N[C@H](C(=O)N1CCC[C@H]1c1nc2cc(-c3csc4c(-c5ccc(-c6cnc([C@@H]7CCCN7C(=O)[C@H](NC(=O)OC)c7ccccc7)[nH]6)cc5)csc34)ccc2[nH]1)C(C)C` [Samatasvir]: the TEAD-luciferase reporter activity (compound concentration: 200 nM) was inactive: -0.959, the TEAD-luciferase reporter activity (compound concentration: 2 uM) was inactive: 4.05 and the TEAD-luciferase reporter activity (compound concentration: 10 uM) was inactive: 3.72.
For `O=c1c(O)c(-c2cc(O)c(O)c(O)c2)oc2cc(O)cc(O)c12` [myricetin], in that order: inactive: -0.661, inactive: -1.3 and inactive: -1.52.
For `CN([C@H]1c2cc(OCCCC(F)(F)F)ccc2OC(C)(C)[C@@H]1O)S(C)(=O)=O`, in that order: inactive: 0.545, inactive: -0.951 and inactive: -0.999.
For `CN1C(C(=O)Nc2ccccn2)=C(OC(=O)/C=C/c2ccccc2)c2ccccc2S1(=O)=O`, in that order: inactive: -0.655, inactive: -0.219 and inactive: -0.342.
Turning to `O=C(CS(=O)Cc1ccco1)NC/C=C\COc1cc(CN2CCCCC2)ccn1` (centres undefined) [lafutidine], the TEAD-luciferase reporter activity was inactive: -0.147 (compound concentration: 200 nM), inactive: 0.851 (compound concentration: 2 uM) and inactive: -1.1 (compound concentration: 10 uM).
Turning to `CCn1cc(C(=O)O)c(=O)c2ccc(Cc3ccccc3)nc21`, the TEAD-luciferase reporter activity by setting is: (compound concentration: 200 nM) inactive: -0.413; (compound concentration: 2 uM) inactive: 0.426; (compound concentration: 10 uM) inactive: 2.8.
